According to patent US11557737B2, “Compound, coating composition comprising same, organic light-emitting element using same, and manufacturing method therefor” (LG Chem, Ltd., priority 2018, dated 2023):

Assay: Device evaluation of organic light emitting device with the compound as dopant of the light emitting layer
Details: current density of 10 mA/cm^2; dopant (6%) with host Compound B in light emitting layer

SMILES | Current Efficiency | Driving voltage | Emission wavelength | Power efficiency
C[Si](C)(C)c1ccc(-c2ccc(N(c3ccc4ccc5c(N(c6ccc(-c7ccc([Si](C)(C)C)cc7)cc6)c6cccc7c6oc6ccccc67)ccc6ccc3c4c65)c3cccc4c3oc3ccccc34)cc2)cc1 [Compound D] | 3.48 cd/A | 5.74 V | 459 nm | 1.51 lm/W
c1ccc([Si](c2ccccc2)(c2ccccc2)c2ccc(-c3ccc(N(c4ccc(-c5ccc6c(c5)oc5ccccc56)cc4)c4cc5ccc6cccc7ccc(c4)c5c67)cc3)cc2)cc1 [Compound F] | 1.46 cd/A | 7.59 V | 435 nm | 0.79 lm/W
c1ccc([Si](c2ccccc2)(c2ccccc2)c2ccc(-c3ccc(N(c4ccc(-c5cccc6c5oc5ccccc56)cc4)c4cc5ccc6cccc7ccc(c4)c5c67)cc3)cc2)cc1 [Compound E] | 1.75 cd/A | 7.64 V | 436 nm | 0.86 lm/W
C[Si](C)(C)c1ccc(N(c2ccccc2)c2ccc3ccc4c(N(c5ccccc5)c5ccc([Si](C)(C)C)cc5)ccc5ccc2c3c54)cc1 [Compound C] | 3.02 cd/A | 6.22 V | 465 nm | 1.94 lm/W
